Reference: PubChem BioAssay AID1224828 (NIAID, 2016)

Test: 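Knock-downs that increase or decrease LPS-induced p65 nuclear translocation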 (primary screen)
Cell system: mouse RAW264.7 G9 macrophage reporter cells (GFP-p65, Tnf promoter-mCherry)
Reagent: siRNA pool against mouse genes, 100 nM
Timing: 2 days siRNA transfection, then 40 min LPS before fixation
Conditions: LPS (Salmonella minnesota R595) at 10 ng/ml
Read-out: 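Imaged p65 nuclear translocation ratio, normalised to the plate median, converted to robust z-scores and averaged across two replicates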
Scale: p65 translocation robust z-score: higher = more nuclear NF-kappaB p65 after LPS than the plate median; nuclear/cytoplasmic p65 ratio: higher = more nuclear NF-kappaB p65
Rule for the call: 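Called active when z exceeds 3.3 or falls under -1.56 (median of Tlr4 controls), giving activity score of at least 50; no calls for control wells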
Calls: active = hit (p65 shift raised or lowered); inactive = no clear change
This is a random part of about 17,000 reagents tested. In the full data, 762 (4.5%) got an active call. 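Active calls include both raised and lowered p65 entry, mostly lowered; wells with fewer than 50 cells lack a z-score.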 Raw values vary from plate to plate and are shown uncorrected. Reagent sequences are not shown.

{"target gene":"Snx33 (sorting nexin 33)","p65 translocation robust z-score":0.14,"nuclear/cytoplasmic p65 ratio, rep 1":1.39,"nuclear/cytoplasmic p65 ratio, rep 2":1.38,"low cell count flag":"enough cells to score","Outcome":"inactive"}
{"target gene":"Irgm2 (immunity-related GTPase family M member 2)","p65 translocation robust z-score":-0.5,"nuclear/cytoplasmic p65 ratio, rep 1":1.58,"nuclear/cytoplasmic p65 ratio, rep 2":1.56,"low cell count flag":"enough cells to score","Outcome":"inactive"}
{"target gene":"Mmel1 (membrane metalloendopeptidase like 1)","p65 translocation robust z-score":0.09,"nuclear/cytoplasmic p65 ratio, rep 1":1.73,"nuclear/cytoplasmic p65 ratio, rep 2":1.56,"low cell count flag":"enough cells to score","Outcome":"inactive"}
{"target gene":"Bpifb2 (BPI fold containing family B, member 2)","p65 translocation robust z-score":-1.76,"nuclear/cytoplasmic p65 ratio, rep 1":1.15,"nuclear/cytoplasmic p65 ratio, rep 2":1.33,"low cell count flag":"enough cells to score","Outcome":"active"}
{"target gene":"Tspan33 (tetraspanin 33)","p65 translocation robust z-score":-0.64,"nuclear/cytoplasmic p65 ratio, rep 1":1.49,"nuclear/cytoplasmic p65 ratio, rep 2":1.32,"low cell count flag":"enough cells to score","Outcome":"inactive"}
{"target gene":"Phf1 (PHD finger protein 1)","p65 translocation robust z-score":0.02,"nuclear/cytoplasmic p65 ratio, rep 1":1.5,"nuclear/cytoplasmic p65 ratio, rep 2":1.41,"low cell count flag":"enough cells to score","Outcome":"inactive"}
{"target gene":"Sumo2 (small ubiquitin-like modifier 2)","p65 translocation robust z-score":0.76,"nuclear/cytoplasmic p65 ratio, rep 1":1.58,"nuclear/cytoplasmic p65 ratio, rep 2":1.32,"low cell count flag":"enough cells to score","Outcome":"inactive"}
{"target gene":"Trap1a (tumor rejection antigen P1A)","nuclear/cytoplasmic p65 ratio, rep 1":1.58,"nuclear/cytoplasmic p65 ratio, rep 2":1.18,"low cell count flag":"fewer than 50 cells per well; well left out of scoring","Outcome":"inactive"}
{"target gene":"Col11a1 (collagen, type XI, alpha 1)","p65 translocation robust z-score":1.12,"nuclear/cytoplasmic p65 ratio, rep 1":1.61,"nuclear/cytoplasmic p65 ratio, rep 2":1.53,"low cell count flag":"enough cells to score","Outcome":"inactive"}
{"target gene":"Pot1a (protection of telomeres 1A)","p65 translocation robust z-score":0.26,"nuclear/cytoplasmic p65 ratio, rep 1":1.5,"nuclear/cytoplasmic p65 ratio, rep 2":1.48,"low cell count flag":"enough cells to score","Outcome":"inactive"}
{"target gene":"Dsg1a (desmoglein 1 alpha)","p65 translocation robust z-score":-2.04,"nuclear/cytoplasmic p65 ratio, rep 1":1.19,"nuclear/cytoplasmic p65 ratio, rep 2":1.11,"low cell count flag":"enough cells to score","Outcome":"active"}
{"target gene":"Znrf2 (zinc and ring finger 2)","p65 translocation robust z-score":1.52,"nuclear/cytoplasmic p65 ratio, rep 1":1.58,"nuclear/cytoplasmic p65 ratio, rep 2":1.45,"low cell count flag":"enough cells to score","Outcome":"inactive"}
{"target gene":"Or8c20 (olfactory receptor family 8 subfamily C member 20)","p65 translocation robust z-score":1.21,"nuclear/cytoplasmic p65 ratio, rep 1":1.51,"nuclear/cytoplasmic p65 ratio, rep 2":1.49,"low cell count flag":"enough cells to score","Outcome":"inactive"}
{"target gene":"Lsm3","p65 translocation robust z-score":-0.63,"nuclear/cytoplasmic p65 ratio, rep 1":1.57,"nuclear/cytoplasmic p65 ratio, rep 2":1.5,"low cell count flag":"enough cells to score","Outcome":"inactive"}

2 entries from above, sorted by “nuclear/cytoplasmic p65 ratio, rep 1”, lowest first:
{"target gene":"Sumo2 (small ubiquitin-like modifier 2)","p65 translocation robust z-score":0.76,"nuclear/cytoplasmic p65 ratio, rep 1":1.58,"nuclear/cytoplasmic p65 ratio, rep 2":1.32,"low cell count flag":"enough cells to score","Outcome":"inactive"}
{"target gene":"Trap1a (tumor rejection antigen P1A)","nuclear/cytoplasmic p65 ratio, rep 1":1.58,"nuclear/cytoplasmic p65 ratio, rep 2":1.18,"low cell count flag":"fewer than 50 cells per well; well left out of scoring","Outcome":"inactive"}
